Record: PubChem BioAssay AID1259308 (NCATS, 2017)

Test: 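Knock-downs that increase output of a recombinant reporter protein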 (primary screen)
Cells: human HEK293 embryonic kidney cells stably expressing firefly luciferase (HEK-CMV-Luc2-Hygro)
Reagent: single siRNA against human genes, 0.8 pmol siRNA per well
Duration: 72 h
Detection: 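Luciferase light (ONE-Glo) measured on one replicate plate set and viability (CellTiter-Glo) on the other, scaled to a negative control siRNA, with robust z-scores and luciferase per cell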
Reading the numbers: total luciferase, z-score and total luciferase, % of control: higher = more reporter protein produced; luciferase per cell, z-score: higher = more reporter output per viable cell; viable cells, % of control: higher = more viable cells
Rule for the call: 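Active when the median/MAD z-score for overall luciferase is greater than 3; a gene was taken forward for validation with new siRNAs if at least two of its three siRNAs passed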
Meaning of the calls: active = raised luciferase; inactive = no rise
Shown is a random part of about 59,000 reagents tested. About 1,510 of them (2.6%) count as active. 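Calls use total luciferase alone and ignore viability, so some active siRNAs may act by altering cell number.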 A number with no mark means an inactive call. The numbers tell different reagents against one gene apart. No sequences are given here.

| Target gene | reagent no. | total luciferase, z-score | total luciferase, % of control | luciferase per cell, z-score | viable cells, % of control |
| --- | --- | --- | --- | --- | --- |
| SCAND3 (SCAN domain containing 3) | 1 | -0.613 | 69.7 | -0.109 | 80.1 |
| SCAND3 (SCAN domain containing 3) | 2 | 0.744 | 96.7 | 0.162 | 104 |
| SCAND3 (SCAN domain containing 3) | 3 | -0.405 | 73.8 | -1.12 | 111 |
| PGM1 (phosphoglucomutase 1) | 1 | -0.0499 | 80.9 | -0.332 | 98.7 |
| PGM1 (phosphoglucomutase 1) | 2 | -1.13 | 59.5 | -1.11 | 89 |
| PGM1 (phosphoglucomutase 1) | 3 | 0.608 | 94 | 0.996 | 80.8 |
| POM121L9P (POM121 transmembrane nucleoporin like 9, pseudogene) | 1 | -0.711 | 67.7 | -0.676 | 90.4 |
| POM121L9P (POM121 transmembrane nucleoporin like 9, pseudogene) | 2 | 0.227 | 86.4 | -0.164 | 101 |
| POM121L9P (POM121 transmembrane nucleoporin like 9, pseudogene) | 3 | 1.09 | 103 | 1.02 | 88.5 |
| NOTCH2NLA (notch 2 N-terminal like A) | 1 | -0.758 | 66.8 | -0.621 | 87.9 |
| NOTCH2NLA (notch 2 N-terminal like A) | 2 | -0.919 | 63.6 | -0.743 | 86.4 |
| NOTCH2NLA (notch 2 N-terminal like A) | 3 | -0.0986 | 79.9 | -0.9 | 113 |
| PHLPP2 (PH domain and leucine rich repeat protein phosphatase 2) | 1 | -0.642 | 69.1 | -0.751 | 94.1 |
| PHLPP2 (PH domain and leucine rich repeat protein phosphatase 2) | 2 | -0.82 | 65.6 | -0.818 | 90.9 |
| PHLPP2 (PH domain and leucine rich repeat protein phosphatase 2) | 3 | 0.231 | 86.5 | 0.0804 | 94.6 |
| PPP1R3F (protein phosphatase 1 regulatory subunit 3F) | 1 | -0.251 | 76.9 | 0.371 | 77.9 |
| PPP1R3F (protein phosphatase 1 regulatory subunit 3F) | 2 | -0.145 | 79 | -0.28 | 95 |
| PPP1R3F (protein phosphatase 1 regulatory subunit 3F) | 3 | 0.512 | 92.1 | 0.771 | 84 |
| HAPLN4 (hyaluronan and proteoglycan link protein 4) | 1 | 2.35 | 129 | 2.67 | 71.2 |
| HAPLN4 (hyaluronan and proteoglycan link protein 4) | 2 | -0.347 | 75 | 0.242 | 78.6 |
| HAPLN4 (hyaluronan and proteoglycan link protein 4) | 3 | 1.23 | 106 | 0.764 | 97.2 |
| C14orf39 (chromosome 14 open reading frame 39) | 1 | 0.274 | 87.3 | -0.0231 | 98.2 |
| C14orf39 (chromosome 14 open reading frame 39) | 2 | -0.304 | 75.8 | -0.667 | 101 |
| C14orf39 (chromosome 14 open reading frame 39) | 3 | 0.619 | 94.2 | 0.0077 | 105 |
| SREBF1 (sterol regulatory element binding transcription factor 1) | 1 | 0.936 | 101 | 0.305 | 104 |
| SREBF1 (sterol regulatory element binding transcription factor 1) | 2 | 0.907 | 99.9 | 1.28 | 79.7 |
| SREBF1 (sterol regulatory element binding transcription factor 1) | 3 | 5.32 (active) | 188 | 3.62 | 80.8 |
| CLEC1A (C-type lectin domain family 1 member A) | 1 | 3.75 (active) | 157 | 3.14 | 76.6 |
| CLEC1A (C-type lectin domain family 1 member A) | 2 | 1.1 | 104 | 0.506 | 101 |
| CLEC1A (C-type lectin domain family 1 member A) | 3 | 0.558 | 93 | 0.419 | 93 |
| TAAR2 (trace amine associated receptor 2) | 1 | 0.862 | 99 | 0.909 | 87.1 |
| TAAR2 (trace amine associated receptor 2) | 2 | -0.501 | 71.9 | -0.687 | 96.3 |
| TAAR2 (trace amine associated receptor 2) | 3 | -1.37 | 54.6 | -1.14 | 82.4 |
| H2BC5 (H2B clustered histone 5) | 1 | 2.19 | 126 | 1.79 | 87.6 |
| H2BC5 (H2B clustered histone 5) | 2 | -2.77 | 26.9 | -2.22 | 53.9 |
| H2BC5 (H2B clustered histone 5) | 3 | -0.724 | 67.5 | -0.0475 | 76.4 |
| GUCY2C (guanylate cyclase 2C) | 1 | -2.66 | 29 | -2.27 | 59 |
| GUCY2C (guanylate cyclase 2C) | 2 | -0.659 | 68.8 | -0.271 | 82.6 |
| GUCY2C (guanylate cyclase 2C) | 3 | -0.0657 | 80.6 | 0.474 | 79.5 |
| SIRPB2 (signal regulatory protein beta 2) | 1 | -0.519 | 71.6 | -0.122 | 82.6 |
| SIRPB2 (signal regulatory protein beta 2) | 2 | 1.79 | 117 | 0.953 | 102 |
| SIRPB2 (signal regulatory protein beta 2) | 3 | 0.394 | 89.7 | 0.262 | 93.6 |
| F10 (coagulation factor X) | 1 | -1.19 | 58.3 | -0.631 | 76.9 |
| F10 (coagulation factor X) | 2 | -0.954 | 62.9 | -1.32 | 99.6 |
| F10 (coagulation factor X) | 3 | 0.933 | 100 | 0.343 | 103 |
| FGF14-AS2 (FGF14 antisense RNA 2) | 1 | 0.0368 | 82.6 | -0.265 | 99 |
| FGF14-AS2 (FGF14 antisense RNA 2) | 2 | 0.108 | 84 | -0.462 | 106 |
| FGF14-AS2 (FGF14 antisense RNA 2) | 3 | 0.449 | 90.8 | 0.0687 | 99.7 |
| LRRC23 (leucine rich repeat containing 23) | 1 | -0.601 | 69.9 | -0.272 | 83.9 |
| LRRC23 (leucine rich repeat containing 23) | 2 | -0.406 | 73.8 | -0.342 | 90.2 |
| LRRC23 (leucine rich repeat containing 23) | 3 | 0.886 | 99.5 | -0.406 | 124 |
| TXNDC11 (thioredoxin domain containing 11) | 1 | 0.695 | 95.7 | 0.797 | 86.7 |
| TXNDC11 (thioredoxin domain containing 11) | 2 | -0.449 | 73 | -0.907 | 104 |
| TXNDC11 (thioredoxin domain containing 11) | 3 | -0.313 | 75.7 | -0.171 | 88.4 |
| MANSC1 (MANSC domain containing 1) | 1 | -0.0107 | 81.7 | 0.425 | 81.6 |
| MANSC1 (MANSC domain containing 1) | 2 | -0.383 | 74.3 | -0.418 | 92.6 |
| MANSC1 (MANSC domain containing 1) | 3 | 2.12 | 124 | 1.09 | 104 |
| CHMP4C (charged multivesicular body protein 4C) | 1 | 1.8 | 118 | 0.865 | 105 |
| CHMP4C (charged multivesicular body protein 4C) | 2 | 1.43 | 110 | 2.08 | 71.3 |
| CHMP4C (charged multivesicular body protein 4C) | 3 | -1.72 | 47.7 | 1.19 | 38.9 |
| CDH23 (cadherin related 23) | 1 | 0.677 | 95.3 | 0.433 | 95.1 |
| CDH23 (cadherin related 23) | 2 | -0.26 | 76.7 | -0.706 | 103 |
| CDH23 (cadherin related 23) | 3 | -0.814 | 65.7 | -0.027 | 73.9 |
| TMEM63B (transmembrane protein 63B) | 1 | -0.124 | 79.4 | 0.481 | 78.2 |
| TMEM63B (transmembrane protein 63B) | 2 | 1.2 | 106 | 0.432 | 105 |
| TMEM63B (transmembrane protein 63B) | 3 | -0.439 | 73.2 | -0.561 | 94.7 |
| SLC25A39 | 1 | 0.165 | 85.2 | -0.0423 | 96.2 |
| SLC25A39 | 2 | 0.87 | 99.2 | 0.55 | 95.9 |
| SLC25A39 | 3 | 1.33 | 108 | 0.327 | 111 |
| GPS2 (G protein pathway suppressor 2) | 1 | -0.0587 | 80.7 | -0.62 | 106 |
| GPS2 (G protein pathway suppressor 2) | 2 | 1.25 | 107 | 1.3 | 84.6 |
| GPS2 (G protein pathway suppressor 2) | 3 | -0.82 | 65.6 | -0.999 | 95.3 |
| C16orf54 (chromosome 16 open reading frame 54) | 1 | 0.369 | 89.2 | -0.254 | 107 |
| C16orf54 (chromosome 16 open reading frame 54) | 2 | -0.987 | 62.3 | -1.97 | 117 |
| C16orf54 (chromosome 16 open reading frame 54) | 3 | 0.955 | 101 | 1.41 | 77.8 |

Reformatted: results already given.
{"Target gene": "F10 (coagulation factor X)", "reagent no.": 3, "total luciferase, z-score": 0.933, "total luciferase, % of control": 100, "luciferase per cell, z-score": 0.343, "viable cells, % of control": 103}
{"Target gene": "FGF14-AS2 (FGF14 antisense RNA 2)", "reagent no.": 1, "total luciferase, z-score": 0.0368, "total luciferase, % of control": 82.6, "luciferase per cell, z-score": -0.265, "viable cells, % of control": 99}
{"Target gene": "FGF14-AS2 (FGF14 antisense RNA 2)", "reagent no.": 2, "total luciferase, z-score": 0.108, "total luciferase, % of control": 84, "luciferase per cell, z-score": -0.462, "viable cells, % of control": 106}
{"Target gene": "FGF14-AS2 (FGF14 antisense RNA 2)", "reagent no.": 3, "total luciferase, z-score": 0.449, "total luciferase, % of control": 90.8, "luciferase per cell, z-score": 0.0687, "viable cells, % of control": 99.7}
